Data source: PubChem BioAssay AID1259405 (NCATS, 2018)
Screen: 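Knock-downs that lift recombinant protein yield in hamster ovary cells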 (primary screen). System: Chinese hamster CHO-K1 ovary cells with stable secreted eGFP expression. Knock-down reagent: single siRNA against mouse genes, 0.8 pmol siRNA per well (2 µl of 400 nM stock). Time to read-out: 3 days. Read-out: 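Per-well intracellular GFP measured by laser scanning cytometry, plus viability from ATP luminescence, each relative to plate median of non-targeting control wells, in %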. Direction: GFP, % of control: higher = more GFP per well, higher productivity; viability (ATP), % of control: higher = more viable cells (more ATP). Active means: 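Called active when intracellular GFP, relative to negative control, is at or above 120%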.
Shown is a random part of about 50,000 deposited reagents. In the full data, about 4,000 (8%) were called active. 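Mouse siRNA library applied to hamster cells; one well for each siRNA.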 Entries without a mark were called inactive. The numbers tell different reagents against one gene apart. No sequences are given here.

no.	gene knocked down	reagent no.	GFP, % of control	viability (ATP), % of control
1	Cp (GeneID 12870)	1	82.1	112
2	Cp (GeneID 12870)	2	57.2	55.3
3	Cp (GeneID 12870)	3	59.9	47.2
4	Espn (GeneID 56226)	1	43.5	48.3
5	Espn (GeneID 56226)	2	85.8	92.6
6	Tsc22d1 (GeneID 21807)	1	54.5	56.6
7	Tsc22d1 (GeneID 21807)	2	89.2	90.8
8	Tsc22d1 (GeneID 21807)	3	62.7	54.5
9	Angptl2 (GeneID 26360)	1	144 (active)	72.5
10	Angptl2 (GeneID 26360)	2	30.7	110
11	Eps15 (GeneID 13858)	1	123 (active)	120
12	Eps15 (GeneID 13858)	2	115	88.8
13	Eps15 (GeneID 13858)	3	79	82.3
14	3110070M22Rik (GeneID 67304)	1	107	95.9
15	3110070M22Rik (GeneID 67304)	2	136 (active)	109
16	3110070M22Rik (GeneID 67304)	3	78	128
17	Tas1r2 (GeneID 83770)	1	37.3	58.8
18	Tas1r2 (GeneID 83770)	2	73.2	82.3
19	Tas1r2 (GeneID 83770)	3	83.4	95.9
20	Sypl2 (GeneID 17306)	1	52.3	76.7
21	Sypl2 (GeneID 17306)	2	75.6	63.9
22	Sypl2 (GeneID 17306)	3	108	86.4
23	Mrgpra2b (GeneID 235712)	1	87.3	54.3
24	Mrgpra2b (GeneID 235712)	2	87.1	87.3
25	Mrgpra2b (GeneID 235712)	3	51.1	59.6
26	Naa35 (GeneID 78689)	1	43.6	63.6
27	Naa35 (GeneID 78689)	2	83	75.2
28	Naa35 (GeneID 78689)	3	64.8	64.3
29	Or5m13b (GeneID 258577)	1	55.8	40.2
30	Or5m13b (GeneID 258577)	2	54.8	84.9
31	Or5m13b (GeneID 258577)	3	62.3	54.2
32	Cplx1 (GeneID 12889)	1	42.1	80.1
33	Cplx1 (GeneID 12889)	2	74.7	70.4
34	Cplx1 (GeneID 12889)	3	83.8	137
35	Eif2b5 (GeneID 224045)	1	125 (active)	115
36	Eif2b5 (GeneID 224045)	2	118	81.5
37	Eif2b5 (GeneID 224045)	3	85.2	82.3
38	Fth1 (GeneID 14319)	1	77.6	87.6
39	Fth1 (GeneID 14319)	2	117	115
40	Fth1 (GeneID 14319)	3	117	73.8
41	Vsig1 (GeneID 78789)	1	44.3	61.4
42	Vsig1 (GeneID 78789)	2	58.3	37.5
43	Vsig1 (GeneID 78789)	3	71.7	72.5
44	Serpina3b (GeneID 271047)	1	48.9	63.4
45	Serpina3b (GeneID 271047)	2	112	78.4
46	Serpina3b (GeneID 271047)	3	93.7	92.9
47	Efna2 (GeneID 13637)	1	42	57.2
48	Efna2 (GeneID 13637)	2	69.3	73.7
49	Efna2 (GeneID 13637)	3	115	67
50	Trem1 (GeneID 58217)	1	67.2	68.7
51	Trem1 (GeneID 58217)	2	46.1	57.3
52	Trem1 (GeneID 58217)	3	58.6	74.3

Targets above whose gene name starts with C or c (6):
gene knocked down	reagent no.	GFP, % of control	viability (ATP), % of control
Cp (GeneID 12870)	1	82.1	112
Cp (GeneID 12870)	2	57.2	55.3
Cp (GeneID 12870)	3	59.9	47.2
Cplx1 (GeneID 12889)	1	42.1	80.1
Cplx1 (GeneID 12889)	2	74.7	70.4
Cplx1 (GeneID 12889)	3	83.8	137

Next entries follow.
no.	gene knocked down	reagent no.	GFP, % of control	viability (ATP), % of control
53	Fancd2os (GeneID 70979)	1	73.2	55.3
54	Fancd2os (GeneID 70979)	2	85.7	45.5
55	Fancd2os (GeneID 70979)	3	110	115
56	Fbll1 (GeneID 237730)	1	51.2	30
57	Fbll1 (GeneID 237730)	2	88.4	37.3
58	Fbll1 (GeneID 237730)	3	66.7	75.3
59	Ucn3 (GeneID 83428)	1	55.7	38
60	Ucn3 (GeneID 83428)	2	65.1	76.8
61	Ucn3 (GeneID 83428)	3	0	130
62	Polq (GeneID 77782)	1	103	64.1
63	Polq (GeneID 77782)	2	128 (active)	97.8
64	Polq (GeneID 77782)	3	92.8	98.9
65	Fbp1 (GeneID 14121)	1	53.5	29.2
66	Fbp1 (GeneID 14121)	2	62.1	72.6
67	Fbp1 (GeneID 14121)	3	69.8	73
68	Pcdhac1 (GeneID 353236)	1	68.8	63.8
69	Pcdhac1 (GeneID 353236)	2	86.8	83.5
70	Pcdhac1 (GeneID 353236)	3	76.6	58.4
71	Hikeshi (GeneID 67669)	1	122 (active)	110
72	Hikeshi (GeneID 67669)	2	95.6	65
73	Hikeshi (GeneID 67669)	3	132 (active)	80.4
74	1700034E13Rik (GeneID 78414)	1	44.1	25.3
75	1700034E13Rik (GeneID 78414)	2	46.7	52.9
76	1700034E13Rik (GeneID 78414)	3	86	78.1
77	Med16 (GeneID 216154)	1	110	104
78	Med16 (GeneID 216154)	2	66.8	63.5
79	Med16 (GeneID 216154)	3	82.5	63.9
80	Prox2 (GeneID 73422)	1	66.5	82.2
81	Prox2 (GeneID 73422)	2	63.6	46.6
82	Prox2 (GeneID 73422)	3	72	79.5
83	Lama4 (GeneID 16775)	1	90.1	110
84	Lama4 (GeneID 16775)	2	82	105
85	Vmn1r8 (GeneID 171205)	1	76.8	75.3
86	Vmn1r8 (GeneID 171205)	2	84.7	75
87	Vmn1r8 (GeneID 171205)	3	86.5	103
88	Glra2 (GeneID 237213)	1	72.1	75
89	Glra2 (GeneID 237213)	2	153 (active)	113
90	Glra2 (GeneID 237213)	3	53.7	64.2
91	Foxa2 (GeneID 15376)	1	58.5	75.3
92	Foxa2 (GeneID 15376)	2	86.1	75.5
93	Pcyt1a (GeneID 13026)	1	109	103
94	Pcyt1a (GeneID 13026)	2	112	118
95	Pcyt1a (GeneID 13026)	3	118	113
96	Tbl3 (GeneID 213773)	1	76.3	77.9
97	Tbl3 (GeneID 213773)	2	97.1	95.8
98	Tbl3 (GeneID 213773)	3	92.4	102
99	Tcp11 (GeneID 21463)	1	35.7	25.2
100	Tcp11 (GeneID 21463)	2	91.4	85.5
101	Tcp11 (GeneID 21463)	3	62.1	72.8
102	Efcab5 (GeneID 319634)	1	83.8	77.7
103	Efcab5 (GeneID 319634)	2	73.3	71.5
104	Efcab5 (GeneID 319634)	3	72.8	94.8
105	Tmem26 (GeneID 327766)	1	121 (active)	128
106	Tmem26 (GeneID 327766)	2	96.1	93
107	Tmem26 (GeneID 327766)	3	67	105
